Assay results published in publication PMC5578694.
Results are given in words; binding and its absence hold for the method and conditions named. Binding seen in cells or lysates may run through a third protein. Some entries that bind do so weakly or less than the wild type. Where a sequence is shown, tags or fusion partners need not be part of it.

Protein sequences, listed by entry. Tags and fused reporters are not part of them.
UniProt P38111: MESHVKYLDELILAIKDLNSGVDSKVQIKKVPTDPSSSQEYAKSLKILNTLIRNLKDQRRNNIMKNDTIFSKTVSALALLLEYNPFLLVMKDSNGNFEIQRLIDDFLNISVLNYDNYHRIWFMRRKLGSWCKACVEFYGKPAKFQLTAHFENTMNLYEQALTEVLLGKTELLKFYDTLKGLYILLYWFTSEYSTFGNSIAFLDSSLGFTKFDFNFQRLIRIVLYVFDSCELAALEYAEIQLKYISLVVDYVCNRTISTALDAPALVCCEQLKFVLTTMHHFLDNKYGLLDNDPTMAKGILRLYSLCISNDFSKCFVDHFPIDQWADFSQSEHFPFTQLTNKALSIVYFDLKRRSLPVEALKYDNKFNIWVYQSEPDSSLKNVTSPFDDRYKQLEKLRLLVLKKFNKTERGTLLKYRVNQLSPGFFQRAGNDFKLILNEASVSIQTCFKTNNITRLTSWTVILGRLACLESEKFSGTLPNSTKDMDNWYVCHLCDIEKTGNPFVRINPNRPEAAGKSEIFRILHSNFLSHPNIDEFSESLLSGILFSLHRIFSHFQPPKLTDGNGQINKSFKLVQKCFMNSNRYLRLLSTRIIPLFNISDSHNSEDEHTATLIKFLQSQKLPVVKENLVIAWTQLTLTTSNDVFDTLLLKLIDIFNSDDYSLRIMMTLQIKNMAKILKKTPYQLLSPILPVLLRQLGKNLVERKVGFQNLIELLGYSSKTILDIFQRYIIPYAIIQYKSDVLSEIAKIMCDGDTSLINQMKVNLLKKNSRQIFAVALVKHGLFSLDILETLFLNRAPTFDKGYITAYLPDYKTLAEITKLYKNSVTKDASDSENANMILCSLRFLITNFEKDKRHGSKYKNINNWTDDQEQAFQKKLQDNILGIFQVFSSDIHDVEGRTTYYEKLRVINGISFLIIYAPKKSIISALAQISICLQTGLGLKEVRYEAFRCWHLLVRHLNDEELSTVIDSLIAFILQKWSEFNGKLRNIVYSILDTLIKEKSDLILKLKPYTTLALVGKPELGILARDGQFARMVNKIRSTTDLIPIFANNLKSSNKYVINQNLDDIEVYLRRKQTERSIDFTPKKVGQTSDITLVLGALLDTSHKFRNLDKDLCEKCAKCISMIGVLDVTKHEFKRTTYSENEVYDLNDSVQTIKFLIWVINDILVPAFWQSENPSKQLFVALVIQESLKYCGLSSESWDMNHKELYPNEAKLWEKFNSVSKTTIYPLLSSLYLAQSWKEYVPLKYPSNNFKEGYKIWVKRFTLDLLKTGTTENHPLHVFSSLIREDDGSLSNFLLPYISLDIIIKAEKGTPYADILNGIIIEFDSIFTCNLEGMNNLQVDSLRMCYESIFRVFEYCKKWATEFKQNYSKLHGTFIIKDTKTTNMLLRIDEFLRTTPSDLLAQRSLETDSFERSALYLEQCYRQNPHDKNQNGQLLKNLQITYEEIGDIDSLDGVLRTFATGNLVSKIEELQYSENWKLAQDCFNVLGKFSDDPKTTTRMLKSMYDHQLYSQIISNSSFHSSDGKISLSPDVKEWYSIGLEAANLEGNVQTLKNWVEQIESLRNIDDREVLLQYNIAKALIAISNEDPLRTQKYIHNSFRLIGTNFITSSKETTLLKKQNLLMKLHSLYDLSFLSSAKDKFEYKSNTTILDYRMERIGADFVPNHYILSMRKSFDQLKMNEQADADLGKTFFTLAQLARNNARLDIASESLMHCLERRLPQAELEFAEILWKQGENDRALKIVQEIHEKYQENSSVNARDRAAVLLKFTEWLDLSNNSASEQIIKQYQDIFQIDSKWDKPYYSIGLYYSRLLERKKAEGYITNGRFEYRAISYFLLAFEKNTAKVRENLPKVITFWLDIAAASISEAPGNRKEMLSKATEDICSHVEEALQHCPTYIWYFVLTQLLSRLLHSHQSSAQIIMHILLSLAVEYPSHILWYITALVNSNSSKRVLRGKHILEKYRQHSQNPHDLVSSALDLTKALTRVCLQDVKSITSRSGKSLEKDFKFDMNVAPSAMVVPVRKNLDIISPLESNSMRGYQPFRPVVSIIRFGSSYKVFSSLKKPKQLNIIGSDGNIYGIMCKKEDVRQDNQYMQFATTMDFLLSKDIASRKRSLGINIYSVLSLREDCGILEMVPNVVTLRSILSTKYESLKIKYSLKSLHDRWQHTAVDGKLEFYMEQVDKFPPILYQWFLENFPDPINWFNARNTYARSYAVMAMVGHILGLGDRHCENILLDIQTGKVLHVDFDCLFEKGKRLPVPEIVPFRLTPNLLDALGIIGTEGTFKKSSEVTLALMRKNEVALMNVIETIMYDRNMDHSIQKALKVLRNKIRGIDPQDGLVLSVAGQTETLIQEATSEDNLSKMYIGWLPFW
UniProt P38110: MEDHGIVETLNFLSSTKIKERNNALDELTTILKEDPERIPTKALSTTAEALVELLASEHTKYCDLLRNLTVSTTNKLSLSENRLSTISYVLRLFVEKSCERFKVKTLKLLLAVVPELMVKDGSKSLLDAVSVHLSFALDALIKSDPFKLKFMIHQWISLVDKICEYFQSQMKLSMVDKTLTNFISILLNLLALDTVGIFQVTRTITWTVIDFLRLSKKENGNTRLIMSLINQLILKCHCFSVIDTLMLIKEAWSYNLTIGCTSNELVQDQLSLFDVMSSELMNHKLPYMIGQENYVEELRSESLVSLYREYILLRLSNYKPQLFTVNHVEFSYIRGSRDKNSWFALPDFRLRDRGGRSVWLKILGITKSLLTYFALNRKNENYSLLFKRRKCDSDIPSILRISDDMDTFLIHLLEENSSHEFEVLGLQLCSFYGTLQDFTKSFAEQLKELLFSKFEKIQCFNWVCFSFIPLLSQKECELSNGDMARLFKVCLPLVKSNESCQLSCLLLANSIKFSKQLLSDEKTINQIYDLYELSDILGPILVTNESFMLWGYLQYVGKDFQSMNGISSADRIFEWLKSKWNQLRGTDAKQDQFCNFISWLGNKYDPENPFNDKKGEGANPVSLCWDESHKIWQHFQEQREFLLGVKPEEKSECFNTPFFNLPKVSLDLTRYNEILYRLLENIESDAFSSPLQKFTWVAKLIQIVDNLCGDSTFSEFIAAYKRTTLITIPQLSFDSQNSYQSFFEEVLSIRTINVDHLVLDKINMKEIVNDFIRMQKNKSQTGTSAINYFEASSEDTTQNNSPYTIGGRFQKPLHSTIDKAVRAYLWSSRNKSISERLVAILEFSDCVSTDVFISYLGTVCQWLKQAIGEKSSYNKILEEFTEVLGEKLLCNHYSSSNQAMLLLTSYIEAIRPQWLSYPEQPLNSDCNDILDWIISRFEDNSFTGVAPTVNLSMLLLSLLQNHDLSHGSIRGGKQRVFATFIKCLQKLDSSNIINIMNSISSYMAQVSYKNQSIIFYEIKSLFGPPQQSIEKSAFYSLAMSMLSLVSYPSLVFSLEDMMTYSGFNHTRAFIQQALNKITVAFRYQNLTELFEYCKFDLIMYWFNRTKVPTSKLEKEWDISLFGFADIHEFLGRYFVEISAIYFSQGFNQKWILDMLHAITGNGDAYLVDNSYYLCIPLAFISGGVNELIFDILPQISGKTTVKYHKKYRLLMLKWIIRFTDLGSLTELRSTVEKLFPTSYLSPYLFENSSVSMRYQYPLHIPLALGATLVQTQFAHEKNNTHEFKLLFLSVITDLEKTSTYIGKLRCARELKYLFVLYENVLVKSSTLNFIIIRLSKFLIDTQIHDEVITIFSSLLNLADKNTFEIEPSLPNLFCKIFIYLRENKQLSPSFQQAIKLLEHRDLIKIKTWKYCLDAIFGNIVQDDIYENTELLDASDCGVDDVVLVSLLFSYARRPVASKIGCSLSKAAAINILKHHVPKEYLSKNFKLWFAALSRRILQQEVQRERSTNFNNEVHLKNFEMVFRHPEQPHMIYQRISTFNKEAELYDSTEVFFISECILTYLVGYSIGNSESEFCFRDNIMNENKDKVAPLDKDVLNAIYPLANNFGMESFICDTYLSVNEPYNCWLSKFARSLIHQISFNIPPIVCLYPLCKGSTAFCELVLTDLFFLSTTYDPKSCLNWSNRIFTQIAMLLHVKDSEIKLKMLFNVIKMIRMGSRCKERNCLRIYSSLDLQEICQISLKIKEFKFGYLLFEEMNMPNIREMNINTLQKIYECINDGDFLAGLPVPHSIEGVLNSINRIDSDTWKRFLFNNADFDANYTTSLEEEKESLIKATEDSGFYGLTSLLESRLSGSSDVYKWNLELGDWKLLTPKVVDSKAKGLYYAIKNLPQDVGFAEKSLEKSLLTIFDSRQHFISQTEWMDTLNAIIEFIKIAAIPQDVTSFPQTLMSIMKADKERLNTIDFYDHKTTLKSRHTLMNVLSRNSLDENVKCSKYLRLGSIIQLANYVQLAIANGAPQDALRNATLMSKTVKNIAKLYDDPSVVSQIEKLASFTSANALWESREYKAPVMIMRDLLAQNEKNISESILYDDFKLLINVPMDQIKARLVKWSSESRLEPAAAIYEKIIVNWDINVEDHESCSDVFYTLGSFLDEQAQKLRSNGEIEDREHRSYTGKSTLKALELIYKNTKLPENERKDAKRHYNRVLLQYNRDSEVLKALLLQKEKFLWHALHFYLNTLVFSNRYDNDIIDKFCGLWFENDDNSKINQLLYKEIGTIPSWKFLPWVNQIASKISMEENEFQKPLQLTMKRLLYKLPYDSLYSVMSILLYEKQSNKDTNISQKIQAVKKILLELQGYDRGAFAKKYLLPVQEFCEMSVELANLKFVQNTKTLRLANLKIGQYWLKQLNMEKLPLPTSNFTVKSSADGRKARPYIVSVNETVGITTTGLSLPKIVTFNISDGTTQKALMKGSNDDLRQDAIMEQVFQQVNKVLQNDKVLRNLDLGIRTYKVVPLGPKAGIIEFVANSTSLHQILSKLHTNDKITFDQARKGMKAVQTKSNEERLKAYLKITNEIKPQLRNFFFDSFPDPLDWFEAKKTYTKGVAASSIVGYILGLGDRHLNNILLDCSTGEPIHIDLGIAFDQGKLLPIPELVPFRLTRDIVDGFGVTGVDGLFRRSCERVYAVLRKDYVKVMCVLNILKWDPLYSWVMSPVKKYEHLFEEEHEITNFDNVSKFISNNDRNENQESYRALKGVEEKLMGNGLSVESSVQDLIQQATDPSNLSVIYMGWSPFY
UniProt Q03940: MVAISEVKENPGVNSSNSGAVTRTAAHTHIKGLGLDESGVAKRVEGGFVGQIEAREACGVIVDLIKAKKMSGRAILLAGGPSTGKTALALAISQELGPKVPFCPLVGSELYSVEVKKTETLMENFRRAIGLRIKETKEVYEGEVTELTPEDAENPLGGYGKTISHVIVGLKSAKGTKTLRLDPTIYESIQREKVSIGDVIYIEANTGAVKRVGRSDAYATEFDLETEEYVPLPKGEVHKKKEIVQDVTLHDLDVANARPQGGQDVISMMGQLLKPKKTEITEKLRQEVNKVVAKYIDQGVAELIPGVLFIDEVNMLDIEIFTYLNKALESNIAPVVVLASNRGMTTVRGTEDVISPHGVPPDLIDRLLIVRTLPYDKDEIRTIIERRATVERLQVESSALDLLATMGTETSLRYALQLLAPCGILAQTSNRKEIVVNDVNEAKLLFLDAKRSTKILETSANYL

T1: Asa1-HA (S. cerevisiae) (UniProt Q06822)
T1 sequence: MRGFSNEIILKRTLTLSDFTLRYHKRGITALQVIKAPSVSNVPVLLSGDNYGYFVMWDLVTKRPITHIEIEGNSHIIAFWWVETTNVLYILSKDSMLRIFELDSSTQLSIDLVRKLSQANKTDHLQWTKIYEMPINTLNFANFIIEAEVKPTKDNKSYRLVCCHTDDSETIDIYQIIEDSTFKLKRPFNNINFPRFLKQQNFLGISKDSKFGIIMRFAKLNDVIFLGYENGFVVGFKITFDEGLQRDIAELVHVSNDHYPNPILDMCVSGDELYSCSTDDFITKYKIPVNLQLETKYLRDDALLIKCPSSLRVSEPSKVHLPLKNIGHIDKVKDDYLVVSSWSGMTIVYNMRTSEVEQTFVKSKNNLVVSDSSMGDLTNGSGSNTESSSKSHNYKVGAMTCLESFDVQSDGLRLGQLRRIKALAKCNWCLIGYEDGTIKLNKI

T2: Tel2-HA (S. cerevisiae) (UniProt P53038)
T2 sequence: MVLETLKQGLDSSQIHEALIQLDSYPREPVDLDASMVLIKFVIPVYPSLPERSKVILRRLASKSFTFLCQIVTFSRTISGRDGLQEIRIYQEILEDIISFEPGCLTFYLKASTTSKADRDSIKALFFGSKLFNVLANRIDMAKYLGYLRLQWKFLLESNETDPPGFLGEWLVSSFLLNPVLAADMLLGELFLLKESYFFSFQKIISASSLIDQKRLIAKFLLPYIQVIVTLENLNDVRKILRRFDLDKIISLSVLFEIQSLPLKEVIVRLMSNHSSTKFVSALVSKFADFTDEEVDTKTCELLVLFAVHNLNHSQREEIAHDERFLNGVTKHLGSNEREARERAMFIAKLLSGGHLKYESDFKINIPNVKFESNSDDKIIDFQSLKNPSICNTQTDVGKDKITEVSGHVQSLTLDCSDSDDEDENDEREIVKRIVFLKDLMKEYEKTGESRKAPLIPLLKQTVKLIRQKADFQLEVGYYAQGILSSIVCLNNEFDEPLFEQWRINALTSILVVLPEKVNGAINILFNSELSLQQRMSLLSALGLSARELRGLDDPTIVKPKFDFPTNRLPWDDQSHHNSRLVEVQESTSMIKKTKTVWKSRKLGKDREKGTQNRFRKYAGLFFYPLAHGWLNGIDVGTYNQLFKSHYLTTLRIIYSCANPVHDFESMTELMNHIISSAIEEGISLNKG


Legend:
Assay in all cases: co-IP; yeast cell extracts immunoprecipitated with anti-HA antibodies; extracts and immunoprecipitates blotted with anti-HA, anti-myc or anti-FLAG; wild-type and pih1Δ cells (Fig 3B); asa1-aid cells with or without IAA and Dox for 6 hr (Fig 5A) or 2 hr (Fig 5E); tel2-aid cells with or without IAA and Dox (Fig 5C); rvb2-aid cells without depletion (Fig 5B); cells at 30°C, for Fig 5D also transferred to 42°C for 1 hr
[1] = biological target: T1, Asa1-HA (S. cerevisiae)
[2] = biological target: T2, Tel2-HA (S. cerevisiae)
[3] = biological target: Mec1-HA (S. cerevisiae) (UniProt P38111)
[4] = biological target: Tel1-HA (S. cerevisiae) (UniProt P38110)

Row | Molecule | binding [1] | binding [2] | binding [3] | binding [4]
1 | Rvb1-myc (from UniProt Q03940 1-463) | binds |  |  | 
2 | Pih1-myc (protein, UniProt P38768 1-344) MADFLLRPIKQRHRNEDKYVSVDAADGSVSKIEPIADFVIKTKLLSANGPEKLQDGRKVFINVCHSPLVPKPEVDFNARIVFPLIIQNEWEIPIITSCYRMDHDKKGQECYVWDCCINSDCSRWICDDIQLREILVEWCLESCEIRDSVVLCRDRIAFPKMKKKGAELPALEVLNDELHQDYKAKMHKIIEEEAGDPMSILRGRNDDGDDNNDPDDGTLPPLFPIENKISGAKIEEIDKNEIAHRNLKQAPAPAPAPHEQQEDVPEYEVKMKRFKGAAYKLRILIENKAPNSKPDRFSPSYNFAENILYINGKLSIPLPRDIVVNAADIKIFHIRKERTLYIYI |  | binds |  | 
3 | Asa1-myc (protein, UniProt Q06822 1-443) MRGFSNEIILKRTLTLSDFTLRYHKRGITALQVIKAPSVSNVPVLLSGDNYGYFVMWDLVTKRPITHIEIEGNSHIIAFWWVETTNVLYILSKDSMLRIFELDSSTQLSIDLVRKLSQANKTDHLQWTKIYEMPINTLNFANFIIEAEVKPTKDNKSYRLVCCHTDDSETIDIYQIIEDSTFKLKRPFNNINFPRFLKQQNFLGISKDSKFGIIMRFAKLNDVIFLGYENGFVVGFKITFDEGLQRDIAELVHVSNDHYPNPILDMCVSGDELYSCSTDDFITKYKIPVNLQLETKYLRDDALLIKCPSSLRVSEPSKVHLPLKNIGHIDKVKDDYLVVSSWSGMTIVYNMRTSEVEQTFVKSKNNLVVSDSSMGDLTNGSGSNTESSSKSHNYKVGAMTCLESFDVQSDGLRLGQLRRIKALAKCNWCLIGYEDGTIKLNKI |  |  | binds | binds
4 | Tel2-FLAG (protein, UniProt P53038 1-688) MVLETLKQGLDSSQIHEALIQLDSYPREPVDLDASMVLIKFVIPVYPSLPERSKVILRRLASKSFTFLCQIVTFSRTISGRDGLQEIRIYQEILEDIISFEPGCLTFYLKASTTSKADRDSIKALFFGSKLFNVLANRIDMAKYLGYLRLQWKFLLESNETDPPGFLGEWLVSSFLLNPVLAADMLLGELFLLKESYFFSFQKIISASSLIDQKRLIAKFLLPYIQVIVTLENLNDVRKILRRFDLDKIISLSVLFEIQSLPLKEVIVRLMSNHSSTKFVSALVSKFADFTDEEVDTKTCELLVLFAVHNLNHSQREEIAHDERFLNGVTKHLGSNEREARERAMFIAKLLSGGHLKYESDFKINIPNVKFESNSDDKIIDFQSLKNPSICNTQTDVGKDKITEVSGHVQSLTLDCSDSDDEDENDEREIVKRIVFLKDLMKEYEKTGESRKAPLIPLLKQTVKLIRQKADFQLEVGYYAQGILSSIVCLNNEFDEPLFEQWRINALTSILVVLPEKVNGAINILFNSELSLQQRMSLLSALGLSARELRGLDDPTIVKPKFDFPTNRLPWDDQSHHNSRLVEVQESTSMIKKTKTVWKSRKLGKDREKGTQNRFRKYAGLFFYPLAHGWLNGIDVGTYNQLFKSHYLTTLRIIYSCANPVHDFESMTELMNHIISSAIEEGISLNKG |  |  | binds | binds
